Assay [1] deals with Kindlin-2 (human (endogenous in MDA-MB-231 and HEK293T)) (UniProt Q96AC1). Put plainly: co-IP; HEK293T cell lysate (RIPA buffer); precipitated with anti-Kindlin-2 antibody or control IgG, protein A or G agarose, blotted with anti-STAT3.
The target is the same in assay [2]. As to the kind of experiment: co-IP; MDA-MB-231 cell lysate (RIPA buffer); precipitated with anti-Kindlin-2 antibody or control IgG, protein A or G agarose, blotted with anti-STAT3.

Amino acid sequences for entries named in this document (tags omitted).
UniProt Q96AC1: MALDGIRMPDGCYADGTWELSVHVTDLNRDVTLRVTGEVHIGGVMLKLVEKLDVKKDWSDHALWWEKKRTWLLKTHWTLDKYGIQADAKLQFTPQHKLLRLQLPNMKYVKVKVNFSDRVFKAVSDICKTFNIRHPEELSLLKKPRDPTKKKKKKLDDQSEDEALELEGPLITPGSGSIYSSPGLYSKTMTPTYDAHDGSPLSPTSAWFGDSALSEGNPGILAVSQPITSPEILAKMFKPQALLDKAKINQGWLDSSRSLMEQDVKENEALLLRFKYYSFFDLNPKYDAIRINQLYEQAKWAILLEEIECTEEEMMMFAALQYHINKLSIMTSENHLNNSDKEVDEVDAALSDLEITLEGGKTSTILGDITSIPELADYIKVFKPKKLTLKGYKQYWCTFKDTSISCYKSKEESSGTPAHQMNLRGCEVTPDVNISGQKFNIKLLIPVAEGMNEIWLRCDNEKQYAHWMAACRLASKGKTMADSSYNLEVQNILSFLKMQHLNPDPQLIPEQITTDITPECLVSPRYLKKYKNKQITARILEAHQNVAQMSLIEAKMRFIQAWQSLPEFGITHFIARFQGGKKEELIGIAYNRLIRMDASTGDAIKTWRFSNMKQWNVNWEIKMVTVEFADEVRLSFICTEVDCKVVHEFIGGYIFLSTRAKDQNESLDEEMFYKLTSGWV
UniProt P40763: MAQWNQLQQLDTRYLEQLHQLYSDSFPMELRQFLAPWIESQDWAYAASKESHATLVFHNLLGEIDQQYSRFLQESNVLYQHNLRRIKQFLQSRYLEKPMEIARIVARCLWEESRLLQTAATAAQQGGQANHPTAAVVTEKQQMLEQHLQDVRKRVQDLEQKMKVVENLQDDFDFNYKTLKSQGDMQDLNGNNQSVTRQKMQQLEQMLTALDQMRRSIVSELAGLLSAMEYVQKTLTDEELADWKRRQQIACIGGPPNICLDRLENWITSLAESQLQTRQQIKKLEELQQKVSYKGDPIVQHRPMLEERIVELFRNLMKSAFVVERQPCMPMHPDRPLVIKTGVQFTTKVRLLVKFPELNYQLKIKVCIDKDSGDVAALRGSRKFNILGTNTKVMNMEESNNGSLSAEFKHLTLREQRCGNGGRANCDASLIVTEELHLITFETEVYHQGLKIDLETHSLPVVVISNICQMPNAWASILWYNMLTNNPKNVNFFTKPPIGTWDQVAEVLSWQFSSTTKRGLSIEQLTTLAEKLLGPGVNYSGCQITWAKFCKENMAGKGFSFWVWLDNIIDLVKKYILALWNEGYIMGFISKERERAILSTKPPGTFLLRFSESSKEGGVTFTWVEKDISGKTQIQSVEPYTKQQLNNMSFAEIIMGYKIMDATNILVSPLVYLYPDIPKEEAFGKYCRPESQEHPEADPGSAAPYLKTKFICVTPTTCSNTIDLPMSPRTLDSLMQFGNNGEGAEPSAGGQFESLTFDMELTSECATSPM

Results are given in words; binding and its absence hold for the method and conditions named. Binding seen in cells or lysates may run through a third protein. Some entries that bind do so weakly or less than the wild type.

With STAT3 (from UniProt P40763 1-770), the binding result in assay [1] and in assay [2] was “binds” each time.

Values taken from article PMC10576046.
